# Results deposited as PubChem BioAssay AID1259405 (NCATS, 2018).
# Test: 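Silenced genes that increase secreted GFP made by CHO cells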 (primary screen)
# Cell system: Chinese hamster CHO-K1 ovary cells with stable secreted eGFP expression
# Reagents: single siRNA against mouse genes, 0.8 pmol siRNA per well (2 µl of 400 nM stock)
# Time to read-out: 3 days
# Measured: 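Percent of the per-plate non-targeting control median for intracellular GFP per well by laser scanning cytometry and for cell viability by ATP luminescence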
# Scale: GFP, % of control: higher = more GFP per well, higher productivity; viability (ATP), % of control: higher = more viable cells (more ATP)
# Hit rule: 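a knock-down is called active if GFP reaches 120% or more of non-targeting control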
# Shown is one part, drawn at random, of about 50,000 reagents tested. In the full data, about 4,000 (8%) got an active call. 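Mouse siRNA library applied to hamster cells; one well for each siRNA.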 A number with no mark means an inactive call. The numbers tell different reagents against one gene apart.
target gene,siRNA no.,"GFP, % of control","viability (ATP), % of control"
Nbn (nibrin),1,67.8,45.5
Nbn (nibrin),2,90.9,74.2
Nbn (nibrin),3,65.6,51.8
Klk1b24 (kallikrein 1-related peptidase b24),1,136 (active),105
Klk1b24 (kallikrein 1-related peptidase b24),2,74.9,93.6
Klk1b24 (kallikrein 1-related peptidase b24),3,97.6,96.4
Klk6 (kallikrein related-peptidase 6),1,99.6,89
Klk6 (kallikrein related-peptidase 6),2,95.9,59.6
Klk6 (kallikrein related-peptidase 6),3,125 (active),89.4
"Mon2 (MON2 homolog, regulator of endosome to Golgi trafficking)",1,74.9,58.6
"Mon2 (MON2 homolog, regulator of endosome to Golgi trafficking)",2,94.8,97
"Mon2 (MON2 homolog, regulator of endosome to Golgi trafficking)",3,41.9,38.5
Ccl2 (C-C motif chemokine ligand 2),1,112,103
Ccl2 (C-C motif chemokine ligand 2),2,65.6,90.1
Larp1b (La ribonucleoprotein 1B),1,83.8,63.5
Larp1b (La ribonucleoprotein 1B),2,114,36.3
Larp1b (La ribonucleoprotein 1B),3,131 (active),71.3
Fgf20 (fibroblast growth factor 20),1,84.5,71.8
Fgf20 (fibroblast growth factor 20),2,40.4,68.2
Fgf20 (fibroblast growth factor 20),3,40,76.3
"Ncaph2 (non-SMC condensin II complex, subunit H2)",1,54.2,83.3
"Ncaph2 (non-SMC condensin II complex, subunit H2)",2,85.5,70
"Ncaph2 (non-SMC condensin II complex, subunit H2)",3,94.8,94.4
Naaladl1 (N-acetylated alpha-linked acidic dipeptidase-like 1),1,95.2,77.5
Naaladl1 (N-acetylated alpha-linked acidic dipeptidase-like 1),2,85.2,79.2
Naaladl1 (N-acetylated alpha-linked acidic dipeptidase-like 1),3,80.5,76.9
"Btn1a1 (butyrophilin, subfamily 1, member A1)",1,118,106
"Btn1a1 (butyrophilin, subfamily 1, member A1)",2,72.9,61.9
Ranbp17 (RAN binding protein 17),1,100,93.3
Ranbp17 (RAN binding protein 17),2,78.5,77.1
Ranbp17 (RAN binding protein 17),3,59.1,69.9
Mageb18 (MAGE family member B18),1,64.3,80.1
Mageb18 (MAGE family member B18),2,77.9,85.8
Mageb18 (MAGE family member B18),3,158 (active),94
Rpl27a (ribosomal protein L27A),1,22.5,26.2
Rpl27a (ribosomal protein L27A),2,102,78.3
Rpl27a (ribosomal protein L27A),3,28.9,67.9

Reagents listed above marked active, once more:
target gene,siRNA no.,"GFP, % of control","viability (ATP), % of control"
Klk1b24 (kallikrein 1-related peptidase b24),1,136 (active),105
Klk6 (kallikrein related-peptidase 6),3,125 (active),89.4
Larp1b (La ribonucleoprotein 1B),3,131 (active),71.3
Mageb18 (MAGE family member B18),3,158 (active),94

More results:
target gene,siRNA no.,"GFP, % of control","viability (ATP), % of control"
Utp11 (UTP11 small subunit processome component),1,76.6,66.4
Utp11 (UTP11 small subunit processome component),2,93.3,47.1
Utp11 (UTP11 small subunit processome component),3,34.8,54.9
Crtc2 (CREB regulated transcription coactivator 2),1,132 (active),71.1
Crtc2 (CREB regulated transcription coactivator 2),2,46.7,78.2
Crtc2 (CREB regulated transcription coactivator 2),3,36.3,75.8
Rps19bp1 (ribosomal protein S19 binding protein 1),1,98,69.1
Rps19bp1 (ribosomal protein S19 binding protein 1),2,145 (active),46.6
Rps19bp1 (ribosomal protein S19 binding protein 1),3,63.2,62
Slc30a6,1,108,65.2
Slc30a6,2,87.7,78
Slc30a6,3,73.8,98.9
Psen1 (presenilin 1),1,63.1,63.8
Psen1 (presenilin 1),2,79.7,36.5
Psen1 (presenilin 1),3,94,53.3
"Rps4x (ribosomal protein S4, X-linked)",1,19,13.9
"Rps4x (ribosomal protein S4, X-linked)",2,51.3,24.9
"Rps4x (ribosomal protein S4, X-linked)",3,47.8,31.6
Dhrs11 (dehydrogenase/reductase 11),1,75.5,73.7
Dhrs11 (dehydrogenase/reductase 11),2,105,107
Dhrs11 (dehydrogenase/reductase 11),3,71.4,81.7
Dnase2b (deoxyribonuclease II beta),1,60.3,77.5
Dnase2b (deoxyribonuclease II beta),2,44.1,50
Dnase2b (deoxyribonuclease II beta),3,55.3,43
Rgs4 (regulator of G-protein signaling 4),1,77.5,72.6
Rgs4 (regulator of G-protein signaling 4),2,63.2,47.4
Rgs4 (regulator of G-protein signaling 4),3,71.2,59.9
Hemk1 (HemK methyltransferase family member 1),1,86.6,96
Hemk1 (HemK methyltransferase family member 1),2,79.3,97.1
Hemk1 (HemK methyltransferase family member 1),3,107,103
Hax1 (HCLS1 associated X-1),1,59.5,64.5
Hax1 (HCLS1 associated X-1),2,138 (active),126
Hax1 (HCLS1 associated X-1),3,72.7,71.8
Zfp414 (zinc finger protein 414),1,58.1,81.5
Zfp414 (zinc finger protein 414),2,116,88.3
Zfp414 (zinc finger protein 414),3,159 (active),84.9
Slc22a15,1,96.8,63.2
Slc22a15,2,67,70
Slc22a15,3,85,98.8
Slc22a15,4,97,69.5
Slc22a15,5,60.1,59.8
Slc22a15,6,81,79.9
Itgb2 (integrin beta 2),1,102,64.6
Itgb2 (integrin beta 2),2,63.5,62.6
Itgb2 (integrin beta 2),3,55.9,35.2
Or5g26 (olfactory receptor family 5 subfamily G member 26),1,55.5,75.4
Or5g26 (olfactory receptor family 5 subfamily G member 26),2,65.3,67.1
Or5g26 (olfactory receptor family 5 subfamily G member 26),3,79.6,84.2
